# The other results are listed elsewhere or left out.
# Protein sequences, listed by entry. Tags and fused reporters are not part of them. Lines headed by an entry give the natural chain unless they say otherwise; changes in a name come on top.
# UniProt Q8NBR6: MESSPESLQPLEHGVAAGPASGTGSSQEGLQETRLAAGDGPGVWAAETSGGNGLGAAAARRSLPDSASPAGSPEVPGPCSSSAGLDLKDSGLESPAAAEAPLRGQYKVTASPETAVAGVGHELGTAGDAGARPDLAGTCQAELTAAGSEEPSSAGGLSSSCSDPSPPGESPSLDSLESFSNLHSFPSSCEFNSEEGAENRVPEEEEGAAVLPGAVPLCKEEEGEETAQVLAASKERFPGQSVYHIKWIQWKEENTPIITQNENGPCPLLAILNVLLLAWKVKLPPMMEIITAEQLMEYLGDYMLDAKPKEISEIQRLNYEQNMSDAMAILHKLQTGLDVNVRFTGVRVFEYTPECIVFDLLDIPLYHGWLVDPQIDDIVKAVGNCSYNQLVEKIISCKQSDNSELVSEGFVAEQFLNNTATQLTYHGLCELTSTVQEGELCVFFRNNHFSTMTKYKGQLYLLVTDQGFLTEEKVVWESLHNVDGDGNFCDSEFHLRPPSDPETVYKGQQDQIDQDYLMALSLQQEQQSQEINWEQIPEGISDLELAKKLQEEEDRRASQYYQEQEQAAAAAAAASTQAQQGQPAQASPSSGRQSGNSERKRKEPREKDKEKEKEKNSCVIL
# UniProt Q9UHC7: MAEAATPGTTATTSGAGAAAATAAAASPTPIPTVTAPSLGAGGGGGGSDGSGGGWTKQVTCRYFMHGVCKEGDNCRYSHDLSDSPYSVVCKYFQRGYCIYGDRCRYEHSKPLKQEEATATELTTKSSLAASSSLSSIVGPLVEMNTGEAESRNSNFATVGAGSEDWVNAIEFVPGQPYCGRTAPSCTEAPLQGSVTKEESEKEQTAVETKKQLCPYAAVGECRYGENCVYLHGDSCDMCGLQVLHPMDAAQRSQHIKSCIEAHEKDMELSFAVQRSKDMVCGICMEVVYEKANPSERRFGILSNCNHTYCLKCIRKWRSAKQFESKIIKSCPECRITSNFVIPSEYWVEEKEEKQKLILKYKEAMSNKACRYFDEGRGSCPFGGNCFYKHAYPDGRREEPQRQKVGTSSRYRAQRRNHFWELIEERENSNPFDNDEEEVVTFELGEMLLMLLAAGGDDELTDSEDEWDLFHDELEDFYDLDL
# UniProt Q96BX8: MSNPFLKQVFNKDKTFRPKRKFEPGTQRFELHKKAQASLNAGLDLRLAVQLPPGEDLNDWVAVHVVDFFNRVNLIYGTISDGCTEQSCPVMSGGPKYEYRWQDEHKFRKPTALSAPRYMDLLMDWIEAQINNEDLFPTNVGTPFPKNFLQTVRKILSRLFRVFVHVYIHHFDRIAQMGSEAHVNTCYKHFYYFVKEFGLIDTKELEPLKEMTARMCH
# UniProt Q9H3L0: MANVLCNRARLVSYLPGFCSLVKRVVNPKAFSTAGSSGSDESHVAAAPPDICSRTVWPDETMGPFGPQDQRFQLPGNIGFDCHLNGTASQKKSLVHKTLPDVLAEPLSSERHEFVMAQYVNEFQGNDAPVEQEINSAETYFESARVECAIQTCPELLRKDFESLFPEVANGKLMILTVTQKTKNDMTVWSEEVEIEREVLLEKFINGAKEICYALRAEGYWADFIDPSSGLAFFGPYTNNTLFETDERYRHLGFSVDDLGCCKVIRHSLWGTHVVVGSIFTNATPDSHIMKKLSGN
# UniProt Q13064: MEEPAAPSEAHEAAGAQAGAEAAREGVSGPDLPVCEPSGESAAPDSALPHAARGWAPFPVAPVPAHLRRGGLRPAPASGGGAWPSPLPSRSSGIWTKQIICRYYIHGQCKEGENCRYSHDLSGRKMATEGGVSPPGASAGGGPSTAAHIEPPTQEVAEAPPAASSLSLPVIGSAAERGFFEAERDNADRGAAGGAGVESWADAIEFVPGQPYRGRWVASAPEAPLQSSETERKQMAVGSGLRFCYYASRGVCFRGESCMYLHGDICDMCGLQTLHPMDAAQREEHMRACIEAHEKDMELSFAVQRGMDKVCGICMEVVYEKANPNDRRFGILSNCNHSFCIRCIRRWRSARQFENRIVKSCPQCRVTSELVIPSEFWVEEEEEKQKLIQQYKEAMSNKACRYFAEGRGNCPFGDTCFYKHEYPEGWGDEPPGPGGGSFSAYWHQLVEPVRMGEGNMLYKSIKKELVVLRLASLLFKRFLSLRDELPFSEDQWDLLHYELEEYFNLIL
# UniProt Q9Y605: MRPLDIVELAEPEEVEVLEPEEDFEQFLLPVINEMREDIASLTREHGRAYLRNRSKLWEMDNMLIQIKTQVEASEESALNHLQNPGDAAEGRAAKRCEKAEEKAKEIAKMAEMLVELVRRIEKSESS
# UniProt Q9Y5U8: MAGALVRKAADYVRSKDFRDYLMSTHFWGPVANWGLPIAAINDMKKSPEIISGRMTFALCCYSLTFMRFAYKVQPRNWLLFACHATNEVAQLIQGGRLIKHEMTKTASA
# UniProt O96033: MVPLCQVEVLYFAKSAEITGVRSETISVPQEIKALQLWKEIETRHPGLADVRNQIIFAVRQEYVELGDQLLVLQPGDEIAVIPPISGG
# UniProt Q9NPA3, whole entry, looked up: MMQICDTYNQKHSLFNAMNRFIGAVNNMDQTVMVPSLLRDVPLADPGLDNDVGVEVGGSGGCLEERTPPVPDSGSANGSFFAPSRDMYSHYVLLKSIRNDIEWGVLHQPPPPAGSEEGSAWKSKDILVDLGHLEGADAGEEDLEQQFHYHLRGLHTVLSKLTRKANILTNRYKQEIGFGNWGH
# UniProt Q70IA6: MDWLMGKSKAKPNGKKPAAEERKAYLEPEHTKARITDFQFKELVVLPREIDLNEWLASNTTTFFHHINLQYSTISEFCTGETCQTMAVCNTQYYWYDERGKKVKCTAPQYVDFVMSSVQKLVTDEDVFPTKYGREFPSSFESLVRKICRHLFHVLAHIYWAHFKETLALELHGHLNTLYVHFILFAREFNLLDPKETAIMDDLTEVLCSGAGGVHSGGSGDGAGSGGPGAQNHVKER
# UniProt O95297: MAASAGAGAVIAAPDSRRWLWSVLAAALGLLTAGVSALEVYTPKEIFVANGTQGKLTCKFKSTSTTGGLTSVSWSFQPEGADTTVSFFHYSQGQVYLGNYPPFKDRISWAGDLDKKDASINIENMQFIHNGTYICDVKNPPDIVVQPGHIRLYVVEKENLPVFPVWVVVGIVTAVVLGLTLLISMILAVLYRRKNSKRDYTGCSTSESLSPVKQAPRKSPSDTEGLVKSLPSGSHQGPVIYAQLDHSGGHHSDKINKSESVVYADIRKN
# UniProt Q13015: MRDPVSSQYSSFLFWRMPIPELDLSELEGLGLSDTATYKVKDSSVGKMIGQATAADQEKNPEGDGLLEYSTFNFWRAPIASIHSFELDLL
# UniProt Q9UI43: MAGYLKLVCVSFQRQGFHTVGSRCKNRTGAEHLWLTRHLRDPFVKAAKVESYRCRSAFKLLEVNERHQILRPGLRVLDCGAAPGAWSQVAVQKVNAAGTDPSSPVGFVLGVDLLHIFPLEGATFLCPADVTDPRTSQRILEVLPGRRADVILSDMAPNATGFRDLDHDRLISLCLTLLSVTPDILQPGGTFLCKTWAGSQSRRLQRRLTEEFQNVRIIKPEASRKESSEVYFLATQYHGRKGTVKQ
# UniProt Q86TA1: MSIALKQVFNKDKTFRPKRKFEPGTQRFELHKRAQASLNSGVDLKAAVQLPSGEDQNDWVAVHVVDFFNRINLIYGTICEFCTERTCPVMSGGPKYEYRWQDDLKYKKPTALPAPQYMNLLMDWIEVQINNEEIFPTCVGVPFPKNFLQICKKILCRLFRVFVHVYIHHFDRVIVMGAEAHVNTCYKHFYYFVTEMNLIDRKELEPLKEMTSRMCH
# UniProt Q86VX9: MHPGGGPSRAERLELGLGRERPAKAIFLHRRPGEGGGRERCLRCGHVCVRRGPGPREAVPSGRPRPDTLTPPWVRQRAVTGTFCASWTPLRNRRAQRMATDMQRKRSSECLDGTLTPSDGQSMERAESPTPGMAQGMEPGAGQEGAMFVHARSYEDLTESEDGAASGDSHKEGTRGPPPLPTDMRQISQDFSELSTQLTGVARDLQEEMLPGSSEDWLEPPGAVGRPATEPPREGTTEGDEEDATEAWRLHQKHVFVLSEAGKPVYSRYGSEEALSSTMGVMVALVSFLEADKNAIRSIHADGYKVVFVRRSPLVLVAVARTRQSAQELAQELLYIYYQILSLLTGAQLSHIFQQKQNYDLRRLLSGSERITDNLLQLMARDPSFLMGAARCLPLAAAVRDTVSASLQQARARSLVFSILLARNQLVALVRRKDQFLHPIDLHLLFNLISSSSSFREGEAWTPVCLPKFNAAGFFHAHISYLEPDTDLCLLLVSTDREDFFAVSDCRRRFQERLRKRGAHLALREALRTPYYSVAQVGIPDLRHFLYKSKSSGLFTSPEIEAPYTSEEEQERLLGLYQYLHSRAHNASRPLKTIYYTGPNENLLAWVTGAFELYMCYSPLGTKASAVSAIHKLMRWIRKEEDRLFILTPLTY
# UniProt Q29983, whole entry, looked up: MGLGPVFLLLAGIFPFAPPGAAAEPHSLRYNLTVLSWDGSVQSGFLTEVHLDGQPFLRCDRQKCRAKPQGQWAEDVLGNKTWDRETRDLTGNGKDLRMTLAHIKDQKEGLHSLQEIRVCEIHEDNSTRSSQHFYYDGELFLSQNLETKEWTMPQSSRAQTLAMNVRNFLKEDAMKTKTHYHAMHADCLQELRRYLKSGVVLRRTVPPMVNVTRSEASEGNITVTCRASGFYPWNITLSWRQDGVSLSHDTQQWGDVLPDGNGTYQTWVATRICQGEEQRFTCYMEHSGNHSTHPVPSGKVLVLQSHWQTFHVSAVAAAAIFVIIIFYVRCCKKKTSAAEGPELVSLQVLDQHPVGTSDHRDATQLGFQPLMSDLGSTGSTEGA
# UniProt Q9BU76: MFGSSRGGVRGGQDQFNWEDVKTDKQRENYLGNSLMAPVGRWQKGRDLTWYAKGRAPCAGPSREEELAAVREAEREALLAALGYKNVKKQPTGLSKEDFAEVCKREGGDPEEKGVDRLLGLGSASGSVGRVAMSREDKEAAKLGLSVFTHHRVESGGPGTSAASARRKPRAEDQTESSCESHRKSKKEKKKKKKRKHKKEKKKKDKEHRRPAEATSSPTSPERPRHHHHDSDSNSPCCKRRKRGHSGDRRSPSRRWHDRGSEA
# UniProt P40692: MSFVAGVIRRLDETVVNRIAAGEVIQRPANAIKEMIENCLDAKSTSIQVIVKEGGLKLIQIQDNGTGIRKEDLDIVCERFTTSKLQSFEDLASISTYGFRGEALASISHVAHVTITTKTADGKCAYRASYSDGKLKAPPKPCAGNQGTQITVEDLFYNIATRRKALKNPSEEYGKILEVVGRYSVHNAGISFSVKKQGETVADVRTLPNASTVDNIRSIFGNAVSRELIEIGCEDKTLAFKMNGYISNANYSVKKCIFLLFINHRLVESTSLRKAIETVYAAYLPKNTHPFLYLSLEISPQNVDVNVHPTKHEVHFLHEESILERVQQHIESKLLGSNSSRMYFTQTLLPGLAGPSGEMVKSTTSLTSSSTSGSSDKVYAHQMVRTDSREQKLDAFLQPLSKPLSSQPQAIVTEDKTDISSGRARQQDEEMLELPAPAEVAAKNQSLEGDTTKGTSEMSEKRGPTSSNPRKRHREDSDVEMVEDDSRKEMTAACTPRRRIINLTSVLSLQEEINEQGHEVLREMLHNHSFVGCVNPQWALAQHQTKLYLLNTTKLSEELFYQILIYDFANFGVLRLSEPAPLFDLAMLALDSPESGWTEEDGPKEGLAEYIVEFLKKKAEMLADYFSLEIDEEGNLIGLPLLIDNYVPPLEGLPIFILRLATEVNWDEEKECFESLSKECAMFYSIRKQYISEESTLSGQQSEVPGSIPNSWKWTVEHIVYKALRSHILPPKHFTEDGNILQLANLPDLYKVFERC
# UniProt Q6NTE8: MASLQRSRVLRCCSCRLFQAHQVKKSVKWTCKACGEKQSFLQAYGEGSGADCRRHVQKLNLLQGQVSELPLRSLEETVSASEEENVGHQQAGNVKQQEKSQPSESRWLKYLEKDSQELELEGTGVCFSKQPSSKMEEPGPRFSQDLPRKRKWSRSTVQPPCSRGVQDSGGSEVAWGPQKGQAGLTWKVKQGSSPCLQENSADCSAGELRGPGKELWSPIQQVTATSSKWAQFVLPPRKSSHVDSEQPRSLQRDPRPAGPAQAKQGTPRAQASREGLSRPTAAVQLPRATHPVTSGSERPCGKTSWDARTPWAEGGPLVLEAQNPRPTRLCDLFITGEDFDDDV
# UniProt Q8NB16: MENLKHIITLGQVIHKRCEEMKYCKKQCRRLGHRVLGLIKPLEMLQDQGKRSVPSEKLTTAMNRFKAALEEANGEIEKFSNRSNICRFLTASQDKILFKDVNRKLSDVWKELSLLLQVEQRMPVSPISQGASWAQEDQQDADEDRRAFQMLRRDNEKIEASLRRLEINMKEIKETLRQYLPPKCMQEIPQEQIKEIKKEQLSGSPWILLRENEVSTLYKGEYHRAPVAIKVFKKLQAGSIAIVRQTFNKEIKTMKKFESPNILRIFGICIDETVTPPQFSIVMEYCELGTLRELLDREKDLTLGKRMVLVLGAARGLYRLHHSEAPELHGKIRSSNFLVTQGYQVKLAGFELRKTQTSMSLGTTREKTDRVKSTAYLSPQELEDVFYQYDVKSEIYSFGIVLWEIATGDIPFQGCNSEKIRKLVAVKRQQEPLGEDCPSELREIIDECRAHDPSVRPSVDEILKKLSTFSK
# Compound: CC1=C(C2=C(C=C1)C(=O)C3=CC=CC=C3N2CCCN)C
# Assay: log2 fold change, soluble protein after heating vs DMSO (PISA); higher = thermal stabilisation; K562 cells, 10 uM, 30 min; active = over 0.2 and 3.5 SD of the protein, either way, in both replicates (recomputed)
# How it was run: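 K562 cells at 2×10^6 cells/mL were treated for 30 min with 10 μM compound, and aliquots were heated for 3 min over 48°C-58°C before pooling. Extraction used PBS with 0.5% NP-40 at 4°C, and soluble protein was the supernatant after 21,000xg for 90 min, measured by TMTpro 16plex LC-MS/MS with channel sums equalised. Thermal stability values, relative to control samples and from duplicates, are log2 fold changes.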
row,Target,log2 fold change
1,MINDY2 (UniProt Q8NBR6),inactive: 0.001
2,MKRN1 (UniProt Q9UHC7),inactive: -0.163
3,MPHOSPH8 isoform 2 (UniProt Q99549),active: -0.84
4,MICAL2 (UniProt O94851),inactive: 0.139
5,MOB3A (UniProt Q96BX8),inactive: -0.003
6,MMADHC (UniProt Q9H3L0),inactive: -0.137
7,MICALL1 (UniProt Q8N3F8),inactive: -0.043
8,MNT (UniProt Q99583),inactive: 0.268
9,MKRN3 (UniProt Q13064),inactive: -0.108
10,MRPL42 (UniProt Q9Y6G3),inactive: 0.001
11,MRFAP1 (UniProt Q9Y605),inactive: -0.339
12,MPC1 (UniProt Q9Y5U8),inactive: -0.005
13,MRPL18 (UniProt Q9H0U6),inactive: -0.13
14,MOCS2 (UniProt O96033),inactive: 0.01
15,MID1IP1 (UniProt Q9NPA3),inactive: 0.048
16,MOB2 isoform 3 (UniProt Q70IA6),inactive: 0.106
17,MPZL1 isoform 3 (UniProt O95297),inactive: 0.354
18,MLLT11 (UniProt Q13015),inactive: 0.333
19,MRM2 (UniProt Q9UI43),inactive: 0.104
20,MOB3B (UniProt Q86TA1),inactive: 0.024
21,MON1A (UniProt Q86VX9),inactive: 0.129
22,MICA (UniProt Q29983),inactive: -0.042
23,MMTAG2 (UniProt Q9BU76),inactive: -0.141
24,MLH1 (UniProt P40692),inactive: 0.008
25,MRNIP (UniProt Q6NTE8),inactive: 0.062
26,MLKL (UniProt Q8NB16),inactive: 0.229
27,MKKS (UniProt Q9HB66),inactive: -0.061

# Exported as tab-separated lines: entries from further up
row	Target	log2 fold change
7	MICALL1 (UniProt Q8N3F8)	inactive: -0.043
8	MNT (UniProt Q99583)	inactive: 0.268
12	MPC1 (UniProt Q9Y5U8)	inactive: -0.005
14	MOCS2 (UniProt O96033)	inactive: 0.01
25	MRNIP (UniProt Q6NTE8)	inactive: 0.062
27	MKKS (UniProt Q9HB66)	inactive: -0.061
